PMC12447578, “Syndecan-4 interacts directly with β-parvin and regulates the ILK-PINCH-β-parvin complex, the β-parvin-β-PIX-Rac1 axis, and cardiomyocyte geometry in a sex-dependent manner” (Frontiers in Cell and Developmental Biology, 2025)

Legend:
[1] = target: T1, SDC4 Δcyt (aa 171–198 deleted) (mouse) (UniProt O35988); experiment: co-IP; lysates of HEK293 cells co-transfected with FL rat β-parvin and mouse SDC4 FL or SDC4Δcyt; IP of syndecan-4, protein A/G agarose beads O/N at 4°C; immunoblot
T1 sequence: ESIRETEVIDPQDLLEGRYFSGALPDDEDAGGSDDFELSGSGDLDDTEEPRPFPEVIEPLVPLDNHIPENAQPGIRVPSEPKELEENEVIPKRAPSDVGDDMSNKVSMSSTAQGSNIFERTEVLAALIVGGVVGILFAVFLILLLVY

[2] = target: T2, SDC4 FL (aa 1–198) (mouse) (UniProt O35988); experiment: as above
T2 sequence: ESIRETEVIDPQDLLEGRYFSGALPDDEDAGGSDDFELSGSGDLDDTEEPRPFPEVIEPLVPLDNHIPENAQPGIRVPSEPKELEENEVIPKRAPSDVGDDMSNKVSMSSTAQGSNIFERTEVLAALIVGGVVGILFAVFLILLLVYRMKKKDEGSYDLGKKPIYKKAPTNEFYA

Substance: 3xFLAG-β-parvin FL (amino acids 1–365) (rat)
- binding [1]: no binding
- binding [2]: binds

Results are given in words; binding and its absence hold for the method and conditions named. Binding seen in cells or lysates may run through a third protein. For some assays here: A result given as binding can be weak or reduced; the word gives no strength.
